Experimental data from US20080027001A1, “NOGO RECEPTOR FUNCTIONAL MOTIFS, PEPTIDE MIMETICS, AND MUTATED FUNCTIONAL MOTIFS RELATED THERETO, AND METHODS OF USING THE SAME” (priority 2006, published 2008).
Positions count from the first letter of the chain named. Names and notes keep the numbering of the source. These are yes or no findings as the source states them, for the method shown. Binding seen in cells or lysates may run through a third protein. Some binding calls cover weakened binding; strength is not graded here. Blank lines part the entries; values can stand above or below the binder they belong to.

Chains of the proteins cited; added tags and fusions are not shown. Residues count along the entry.
UniProt P08138, residues 29-427: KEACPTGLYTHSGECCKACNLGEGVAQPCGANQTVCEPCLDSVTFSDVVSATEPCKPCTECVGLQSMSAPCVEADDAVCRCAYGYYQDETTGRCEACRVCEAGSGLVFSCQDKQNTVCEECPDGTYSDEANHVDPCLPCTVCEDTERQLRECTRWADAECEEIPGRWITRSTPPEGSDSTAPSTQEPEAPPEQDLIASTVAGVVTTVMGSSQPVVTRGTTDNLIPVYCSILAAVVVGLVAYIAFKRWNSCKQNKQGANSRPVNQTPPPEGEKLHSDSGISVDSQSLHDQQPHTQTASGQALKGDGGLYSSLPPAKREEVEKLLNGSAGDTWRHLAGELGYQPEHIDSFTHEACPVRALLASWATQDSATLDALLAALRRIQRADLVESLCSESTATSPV

Tests used:
[1] = target: human p75 neurotrophin receptor (p75NTR) expressed in CHO-K1 cells (human) (UniProt P08138); experiment: co-immunoprecipitation with goat anti-human NgR1 antibody from co-transfected CHO-K1 cells, Western blot for p75NTR
[2] = target: human p75 neurotrophin receptor (p75NTR) expressed in CHO-K1 cells (human) (UniProt P08138); experiment: co-immunoprecipitation with goat anti-human NgR1 antibody from co-transfected CHO-K1 cells, Western blot for p75NTR (control experiments)

B1: mutant NgR1 EM7 (K277D/R279D) (receptor, human, UniProt Q9BZR6 27-447, looked up)
chain: CPGACVCYNEPKVTTSCPQQGLQAVPVGIPAASQRIFLHGNRISHVPAASFRACRNLTILWLHSNVLARIDAAAFTGLALLEQLDLSDNAQLRSVDPATFHGLGRLHTLHLDRCGLQELGPGLFRGLAALQYLYLQDNALQALPDDTFRDLGNLTHLFLHGNRISSVPERAFRGLHSLDRLLLHQNRVAHVHPHAFRDLGRLMTLYLFANNLSALPTEALAPLRALQYLRLNDNPWVCDCRARPLWAWLQDFDGSSSEVPCSLPQRLAGRDLKRLAANDLQGCAVATGPYHPIWTGRATDEEPLGLPKCCQPDAADKASVLEPGRPASAGNALKGRVPPGDSPPGNGSGPRHINDSPFGTLPGSAEPPLTAVRPEGSEPPGFPTSGPRRRPGCSRKNRTRSHCRLGQAGSGGGGTGDSEGS
binding [1]: binds

B2: mutant NgR1 EM8 (K277A, R279A) (receptor, human, UniProt Q9BZR6 27-447, looked up)
chain: B1 chain with D251A, D253A
binding [1]: binds

B3: mutant NgR1 EM10 (K277A) (receptor, human, UniProt Q9BZR6 27-447, looked up)
chain: B1 chain with D251A, D253R
binding [1]: binds

More lines, now with the values ahead:

binding [2]: binds
B4: wild type human Nogo Receptor 1 (NgR1), full-length, expressed in cells (receptor, UniProt Q9BZR6 27-447, looked up)
chain: B1 chain with D251K, D253R

binding [1]: binds
B5: mutant NgR1 EM11 (R279A) (receptor, human, UniProt Q9BZR6 27-447, looked up)
chain: B1 chain with D251K, D253A
